This is one part of the list. The main result of the screen is listed elsewhere. These columns were measured beside it and carry no call. The list favours compounds with an active or inconclusive main result. Words in brackets tell the shape of the fitted curve; partial curves, single points and poor fits give uncertain potencies.
Test: qHTS Assay to Find Inhibitors of Chronic Active B-Cell Receptor Signaling
Conditions: ABC-DLBCL IkBa-CBG/CBR reporter, luminescence ratio (green luciferase fused to IkBa over red control in TMD8 lymphoma cells), 4 h
Procedure, shortened: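 Concentration-response series (up to 46 uM) were applied to TMD8 dual-reporter cells for 4 h at 37C with doxycycline. Green/red ratio, after filter-overlap correction, defined %Activity; red signal alone was normalised to basal cells and zero luminescence.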

[1] = measured here: CBR red luminescence, cell number

SMILES	AC50 [1]	AC50 (measured here: IkBa-CBG green luminescence)
O=C(O)C1C2C=CC(C2)C1C(=O)NCCc1cccc(Cl)c1 (stereo not given)	8.2 µM [falling, partial curve, poor fit]	
COc1ccc(C(=O)C[n+]2cc(-c3ccc(OC)cc3)n3c2CCCC3)cc1	35.5 µM [falling, single point]	
CC(C)c1nn2c(N)c(/C=C3\C=Nc4ccccc43)c(=O)nc2s1	0.891 µM [rising, full curve, poor fit]	
CCCCOC(=O)n1c(SCC(=O)N(C)C)nc2ccccc21	0.224 µM [falling, full curve, poor fit]	
Cc1ccc(OCc2nc(-c3ccccn3)n[nH]2)cc1	20.6 µM [falling, single point]	
Cc1ccccc1OCC(=O)Nc1ccc(C)c(S(=O)(=O)N2CCCCCC2)c1	20.6 µM [falling, single point]	
Cc1nc2sc(C(c3cccc(F)c3)N3CCN(C(=O)c4ccco4)CC3)c(O)n2n1 (stereo not given)	3.66 µM [rising, full curve, poor fit]	
O=S(=O)(CCSc1nc2ccccc2o1)Cc1ccccc1	6.51 µM [rising, single point]	
O=C(N/N=C1\CCCc2ccccc21)c1cccc(Br)c1	22.4 µM [falling, single point]	
O=C(Nc1nnc(-c2ccccc2)o1)c1cccc(N2C(=O)CCC2=O)c1	20.6 µM [falling, single point]	
O=C(O)Cc1csc(-c2ccccc2)n1	11.2 µM [rising, partial curve, poor fit]	
Clc1cccc(-n2cc(-c3ccccc3)c3c(NC4CCCC4)ncnc32)c1	10 µM [rising, partial curve]	
CNC(=O)/C(=C\C=C\c1ccccc1)NC(=O)c1ccc([N+](=O)[O-])cc1	29.1 µM [rising, single point]	
c1ccc(N2CCN(c3ncccn3)CC2)cc1	5.01 µM [rising, partial curve, poor fit]	
CC1CCN(C(=O)CCCOc2cc(=O)n(C)c3ccccc23)CC1	3.66 µM [rising, full curve]	11.6 µM [falling, partial curve]
Cc1ccc(SCCNC(=O)/C=C/c2ccc(Cl)cc2)cc1	29.1 µM [rising, single point]	
Cc1oc(-c2ccccc2F)nc1CS(=O)CC(=O)NCc1ccc2c(c1)OCO2 (stereo not given)	4.61 µM [rising, partial curve, poor fit]	
COC(=O)c1cc(NC(=O)c2ccco2)ccc1N1CCOCC1	7.94 µM [falling, partial curve, poor fit]	
COC(=O)c1ccc(Sc2ccc(F)cc2)c(N)c1	29.1 µM [rising, single point]	
COC(=O)c1ccccc1NC(=O)Nc1ccc(Cl)cn1	15.8 µM [falling, partial curve, poor fit]	
COc1ccccc1Oc1ccc2c(c1)C(=O)N(c1cccc(O)c1)C2=O	35.5 µM [falling, single point]	
Cc1cc(C)nc(Sc2ncnc3c2oc2ccccc23)n1	35.5 µM [falling, single point]	

SMILES	AC50 [1]	AC50 (measured here: IkBa-CBG green luminescence)
NS(=O)(=O)c1ccccc1	3.16 µM [falling, full curve]	
COc1ccccc1CNC(=O)c1ccccc1SCC(=O)NCc1ccco1	8.2 µM [falling, partial curve]	
Cc1cccc(NC(=S)Nc2ccc(Oc3ccccc3)cc2)n1	0.82 µM [rising, full curve]	
CCN(Cc1ccccc1)c1ccc(/C=N/N=C(N)N)cc1	29.1 µM [falling, single point]	
O=C(N/N=C\c1cccnc1)c1cc(-c2ccc(Cl)s2)[nH]n1	5.62 µM [falling, partial curve, poor fit]	
S=c1[nH]nc(-c2ccccc2)n1/N=C/c1cccs1	16.4 µM [rising, single point]	
CCCCNc1cc(C)nc(NCc2ccccc2)n1	35.5 µM [falling, single point]	
O=C(O)c1ccc(-c2ccc(O)c(F)c2)cc1	0.0731 µM [rising, partial curve, poor fit]	
CCc1nnc(NC(=O)CSc2nnc(-c3ccco3)o2)s1	10 µM [falling, partial curve]	
COC(=O)c1nn(-c2ccccc2)c(Sc2ccc(Br)cc2)c1/C=N/O	12.6 µM [falling, partial curve]	
Cc1cccc2sc(N(CCN(C)C)C(=O)/C=C/c3cccs3)nc12	29.1 µM [falling, single point]	
O=C(CN1C(=O)S/C(=C\C=C\c2ccccc2)C1=O)N1CCCCC1	20 µM [rising, partial curve, poor fit]	
CCN(CC(=O)NCc1ccc(Cl)cc1)S(=O)(=O)c1ccc(NC(C)=O)cc1	35.5 µM [rising, partial curve, poor fit]	
O=C1CCCc2nc(N3CCc4ccccc43)ncc21	10 µM [rising, partial curve]	
COc1ccccc1-n1c(=O)c(C#N)c(-c2ccc([N+](=O)[O-])cc2)c2cc(C(=O)c3ccccc3O)cnc21	1 µM [falling, full curve, poor fit]	
O=C(Nc1ccc2c(c1)OCO2)c1cnn2c1NC(c1ccco1)CC2C(F)(F)F (stereo not given)	6.31 µM [rising, full curve]	
CC(C(=O)Nc1ccc2c(c1)OCCO2)N(C)CC(=O)Nc1ccccc1Br (stereo not given)	18.4 µM [rising, partial curve, poor fit]	
CCc1nn2cc(C(=O)c3ccccc3O)cnc2c1-c1ccc(F)cc1	13 µM [falling, partial curve]	
COc1cccc(CNC(=O)Cn2c(=O)oc3cc(S(=O)(=O)N4CCCCCC4)ccc32)c1	3.55 µM [rising, partial curve, poor fit]	
COC(=O)c1ccccc1NC(=O)c1cc2ccccc2o1	0.224 µM [falling, full curve, poor fit]	
N#CC1=C(N)C(C#N)(C#N)[C@H](c2ccncc2)[C@H]2CC3(CC=C12)OCCO3	12.6 µM [rising, partial curve, poor fit]	
COc1ccc(Br)cc1CN1CCN(Cc2c[nH]c3ccccc23)CC1	35.5 µM [falling, single point]	

Whole records as entered above.
COc1ccccc1CNC(=O)c1ccccc1SCC(=O)NCc1ccco1 is entered as AC50 [1]: 8.2 µM [falling, partial curve]
Cc1cc(C)nc(Sc2ncnc3c2oc2ccccc23)n1 is entered as AC50 [1]: 35.5 µM [falling, single point]

Next part

SMILES	AC50 [1]	AC50 (measured here: IkBa-CBG green luminescence)
Cc1ccc(Cl)cc1NC(=O)C1CCCN1S(=O)(=O)c1ccc(-c2ccc(=O)[nH]n2)s1 (stereo not given)	2.82 µM [rising, full curve, poor fit]	
O=C(COC(=O)c1ccccc1SCC(=O)N1CCCC1)Nc1ccccc1OC(F)F	20.6 µM [falling, partial curve, poor fit]	
CC(=O)N(/N=C/c1ccc([N+](=O)[O-])o1)c1nc2ccccc2c(=O)n1-c1ccccc1	7.94 µM [rising, partial curve]	
CCN(CC)C(=O)Cn1cnc2sc(C(=O)Nc3cc(OC)c(OC)c(OC)c3)c(C)c2c1=O	0.206 µM [rising, full curve, poor fit]	
CCCc1cc(=O)n2[nH]c(NCc3ccccc3F)nc2n1	29.1 µM [falling, single point]	
O=C1CCCN1c1ccc(S(=O)(=O)Nc2ccc3c(c2)OCCO3)cc1	7.31 µM [falling, single point]	
O=C(c1cc(-c2cccs2)on1)N1CCN(C(c2ccccc2)c2ccccc2)CC1	2.06 µM [rising, partial curve, poor fit]	
COc1ccc(NC(=O)CCS(=O)(=O)c2ccccc2Cl)cc1S(=O)(=O)Nc1ccc(Cl)cc1	35.5 µM [falling, single point]	
CCC(=O)Nc1cccc(-c2nc3cc(C)ccc3o2)c1	35.5 µM [falling, single point]	
CC(=O)NC(Cc1ccccc1F)C(=O)NC1CCN(C(=O)NCc2ccccc2)CC1 (stereo not given)	12.6 µM [rising, partial curve, poor fit]	
Cc1cccc([C@@H]2[C@@H]3C(=O)N(Cc4ccccc4)C(=O)[C@@H]3[C@]3(Cc4ccccc4)C(=O)N(c4ccc(C(F)(F)F)cc4)C(=O)N23)c1	1.3 µM [falling, full curve]	
CC(C)(C)OC(=O)N[C@H](C(=O)OC(C)(C)C)c1ccc2c(c1)OCO2	2.06 µM [rising, partial curve, poor fit]	
Cc1ccc2c(c1)nnn2C1CCN(S(=O)(=O)c2ccc(C(=O)N3C(C)CCCC3C)cc2)CC1 (stereo not given)	12.6 µM [falling, partial curve]	
CCOC(=O)CCC(=O)N1CCOCCOCCN(C(=O)CCC(=O)OCC)CCOCCOCC1	18.4 µM [rising, single point]	
CCC(=O)Nc1ccc2nc(C)n(Cc3ccccc3Cl)c(=O)c2c1	29.1 µM [rising, single point]	
O=C(Nc1cccc2ncccc12)c1cccc(Br)c1	15.8 µM [rising, single point]	
O=C(Nc1ccc(O)cc1)c1ccc(C(=O)c2ccccc2)o1	4.47 µM [falling, full curve]	
N#Cc1c(NC(=O)c2ccc([N+](=O)[O-])o2)sc2c1CCC2	2.24 µM [falling, full curve]	
O=C(NC(=S)NNC(=O)c1ccccc1F)c1cccnc1	35.5 µM [falling, single point]	
CCN(CC)C(=O)[C@H]1CC(CC(=O)NCCCOC)C(=O)N2CCc3c([nH]c4ccccc34)[C@]12C (stereo not given in full)	4.11 µM [rising, single point]	

Reference: PubChem BioAssay AID493014 (National Center for Advancing Translational Sciences (NCATS), 2011)
